One molecule from PMC3438196 can be followed below.

No constants are given. Whether binding was seen depends on the method and setting. Some binding calls cover weakened binding; strength is not graded here.

Assay [1] has as its target Apobec3G-GFP MAPPIT bait (pCEL-Apobec3G-GFP) (human), Q9HC16. The assay can be described thus: two-hybrid; random mutagenesis MAPPIT: pCEL-Apobec3G-GFP baits (wild type, W127A, error prone PCR mutants), automated 384-well transfection of HEK293T cells, 1.5 ng bait and 6.5 ng prey plasmid per well, overnight 10 ng/ml hEpo; relative MAPPIT signal as % of the median of the six wild type baits on the plate. The following applies: remark: other sources report otherwise.

Assay [2] addresses Apobec3G MAPPIT bait (pCEL-Apobec3G) (human), Q9HC16. Nature of the assay: two-hybrid; MAPPIT (mammalian two-hybrid) in intact HEK293T cells: bait on the EpoR/leptin receptor chimera, prey on gp130 fragments, pXP2d2-rPAP1-luciferase reporter; fold induction of luciferase, Epo-stimulated (10 ng/ml hEpo) over unstimulated; 6-well or 96-well calcium phosphate transfection. The conditions noted are these: remark: other sources report otherwise. Background: A reporter such as luciferase makes a cellular process visible.

B1: Apobec3G MAPPIT prey (pMG2-Apobec3G), Q9HC16 1-384 (protein)
chain: MKPHFRNTVERMYRDTFSYNFYNRPILSRRNTVWLCYEVKTKGPSRPPLDAKIFRGQVYSELKYHPEMRFFHWFSKWRKLHRDQEYEVTWYISWSPCTKCTRDMATFLAEDPKVTLTIFVARLYYFWDPDYQEALRSLCQKRDGPRATMKIMNYDEFQHCWSKFVYSQRELFEPWNNLPKYYILLHIMLGEILRHSMDPPTFTFNFNNEPWVRGRHETYLCYEVERMHNDTWVLLNQRRGFLCNQAPHKHGFLEGRHAELCFLDVIPFWKLDLDQDYRVTCFTSWSPCFSCAQEMAKFISKNKHVSLCIFTARIYDDQGRCQEGLRTLAEAGAKISIMTYSEFKHCWDTFVDHQGCPFQPWDGLDEHSQDLSGRLRAILQNQEN
On to B1, for which the binding entry in assay [1] and in assay [2] was “binds” throughout.
